One may read the AC50 as the concentration at which the activity in the assay is half-maximal.

From PubChem BioAssay AID1487 (National Center for Advancing Translational Sciences (NCATS), 2009) come the findings set out here.

Some of the results follow. The main result of the screen is listed elsewhere. These columns were measured beside it and carry no call. Most of these compounds were active or inconclusive in the main read-out, so they are no random draw. Words in brackets tell the shape of the fitted curve; partial curves, single points and poor fits give uncertain potencies.

This test can be described thus: qHTS Assay for Modulators of Lamin A Splicing. The note with it: HeLa LMNA splicing GFP/RFP minigene ratio, 48 h. In a few lines: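 Read-out is the ratio of GFP to DsRed2 object intensity, acquired by 488 nm laser-scanning cytometry on HeLa lamin A-EGFP minigene reporter cells. Compound incubation 48 hrs at 37 °C in Opti-MEM with 2% FBS; DMSO 0.5% final.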
A general note: qHTS replaces the single test concentration by a dilution series.

Where [1] appears, read: measured here: GFP splicing reporter channel.
The mark [2] stands for this setting: measured here: RFP viability control channel.

`CCN(CC)S(=O)(=O)c1ccc(N2CCCC2)c(NC(=O)c2ccncc2)c1`: under setting [1], the AC50 is 35.5 µM [rising, partial curve, poor fit].
Turning to `CN1C(=O)c2cccc3c(S(=O)(=O)NCc4ccco4)ccc1c23`, the concentration at half-maximal activity (AC50) under setting [2] is 28.2 µM [rising, single point].
In the case of `COc1ccc(C(CNC(=O)COc2ccc(F)cc2Br)N2CCCC2)cc1` (stereo not drawn), the AC50 is 1.41 µM [falling, partial curve] under setting [1] and 6.31 µM [falling, single point] under setting [2].
As for `COc1cccc(-c2cc3nc4c(c(NCC(C)(C)CN(C)C)n3n2)CCCC4)c1`, the AC50 is, setting by setting: under setting [1], 0.158 µM [rising, full curve, poor fit]; under setting [2], 0.0398 µM [rising, full curve, poor fit].
`COc1ccc(N2C(=O)CC(SC(C)C)C2=O)cc1` (stereo not drawn): the AC50 under setting [2] was 3.16 µM [rising, single point].
Consider `CCCOc1ccc(/C=N/NC(=S)Nc2ccccc2[N+](=O)[O-])c(O)c1`, for which the AC50 by setting is: under setting [1], 2.82 µM [rising, partial curve]; under setting [2], 10 µM [rising, partial curve].
For `Oc1ccc(Nc2nc(NCC3CCCO3)c3ccccc3n2)cc1` (stereo not drawn), the AC50 is, setting by setting: under setting [1], 22.4 µM [rising, partial curve, poor fit]; under setting [2], 22.4 µM [rising, single point].
As for `COc1ccc(/C=C/C(=O)NC(=S)NNC(=O)c2c(-c3ccccc3)noc2C)cc1`, the AC50 under setting [2] was 12.6 µM [rising, single point].
Regarding `O=C(c1ccc2c(c1)OCO2)N1CCN(c2ccc(Cl)cc2)CC1`, the AC50 under setting [1] was 3.55 µM [rising, full curve] and the AC50 under setting [2] is 12.6 µM [rising, partial curve].
As to `O=C(COC(=O)c1cc([N+](=O)[O-])ccc1NCc1ccccc1Cl)NCC(F)(F)F`, the AC50 under setting [2] was 7.94 µM [rising, partial curve, poor fit].
For the compound `Cc1ccc(C(=O)CN2/C(=C(\O)c3ccccc3)C(=O)c3ccccc3S2(=O)=O)c(C)c1`, under setting [1], the AC50 was 0.00891 µM [falling, full curve, poor fit].
`O=C1C2CCCN2C(c2ccccc2)N1c1ccc(Cl)cc1` (stereo not drawn): the AC50 under setting [2] is 12.6 µM [rising, partial curve].
In the case of `c1ccc(Nc2n[nH]nc2-c2ccccc2)cc1`, the AC50 is 11.2 µM [rising, partial curve, poor fit] under setting [1] and 5.62 µM [rising, full curve, poor fit] under setting [2].
For the compound `O=C1S/C(=C\c2ccc(N3CCOCC3)o2)C(=O)N1Cc1ccc(F)cc1`, the AC50 is, setting by setting: under setting [1], 35.5 µM [falling, single point]; under setting [2], 15.8 µM [falling, partial curve].
In the case of `CCOC(=O)C1CCN(C(=O)c2ccc3c(c2)OCO3)CC1`, the AC50 under setting [1] is 5.62 µM [rising, single point].
The same measure, in the same setting: the value for `COc1ccc2c(c1)CC(C(=O)NCCCN1CCN(c3cccc(Cl)c3)CC1)CO2` (stereo not drawn) was 10 µM [falling, partial curve].
`COc1ccc(NC(=O)c2ccc(NCCCN3CCOCC3)c([N+](=O)[O-])c2)cc1`: the half-maximal activity concentration (AC50) under setting [2] was 0.0112 µM [rising, full curve, poor fit].
Same read-out and setting: the value for `COc1cc2c3c(c1)-c1c(sn(-c4cc(OC)ccc4OC)c1=S)C(C)(C)N3C(=O)C2=O` was 35.5 µM [falling, single point].
On to `Cc1c(C(=O)OCC(=O)c2ccc3c(c2)OCCO3)oc2ccccc12`, for which the AC50 by setting is: under setting [1], 11.2 µM [rising, single point]; under setting [2], 20 µM [rising, single point].
`CCN1CCN(C(=S)Nc2cccc([N+](=O)[O-])c2)CC1`: the AC50 was 35.5 µM [rising, single point] under setting [1] and 35.5 µM [rising, single point] under setting [2].
Take `O=C(Cn1c(=O)nc(-c2ccccc2)c2cc(Cl)ccc21)N1CCN(c2ccccc2F)CC1`: under setting [1], the AC50 was 0.01 µM [rising, full curve, poor fit].
`Cc1c(Cl)cccc1NC(=S)N(Cc1cccnc1)Cc1ccccc1Cl`: the AC50 under setting [2] is 20 µM [rising, single point].
On the same count and under the same terms, for `Cc1ccc(C(NC(=O)C(C)C)c2cc([N+](=O)[O-])c3cccnc3c2O)cc1` (stereo not drawn) the value was 5.62 µM [rising, full curve]; for `CC(=O)NCCc1ccc(O)c(O)c1`, 5.62 µM [falling, single point].
Consider `O=C(CCCCCNC(=O)c1ccccc1Br)N=Nc1c(O)[nH]c2ccccc12`, for which the AC50 is 0.00501 µM [falling, full curve, poor fit] under setting [1] and 0.00501 µM [falling, full curve, poor fit] under setting [2].
Take `Cc1cc(N2CCN(C)CC2)nc2ccc(NC(=O)Nc3cccc(Cl)c3)cc12`: the AC50 under setting [1] was 8.91 µM [falling, partial curve].
For `Cc1cccc(-n2ncc(C(=O)N3CCN(c4ccc(C)cc4C)CC3)c2C2CCN(C(=O)OC(C)(C)C)CC2)c1`, the AC50 under setting [2] was 0.0126 µM [rising, full curve, poor fit].
On to `Cn1c(=O)c2c(nc(NCCOc3ccc(C(C)(C)C)cc3)n2C)n(C)c1=O`, for which the concentration at half-maximal activity (AC50) is 5.62 µM [rising, partial curve] under setting [1] and 1.26 µM [rising, full curve] under setting [2].
For the compound `OCCNCCCOc1cc(Cl)ccc1Cl`, the AC50 under setting [2] was 0.355 µM [falling, full curve, poor fit].
Same read-out and setting: for `Cc1oc2ncn(C)c(=O)c2c1C(=O)NCCCN1CCCCC1C` (stereo not drawn) the value was 0.0501 µM [falling, full curve, poor fit]; for `COc1cccc(NS(=O)(=O)c2c(C)cc(C)cc2C)c1`, 35.5 µM [rising, single point].
In the case of `Cc1ccc(-n2nnnc2-c2cnn(-c3ccc(F)cc3)c2C(F)(F)F)cc1`, the AC50 runs as follows: under setting [1], 11.2 µM [rising, partial curve]; under setting [2], 15.8 µM [rising, partial curve].
Turning to `CCn1c(Cc2cccs2)nnc1SCC(=O)Nc1ccc(OC)c(OC)c1`, the AC50 under setting [2] is 17.8 µM [rising, single point].
Regarding `CC(C)COc1ccc(Cc2cnc(N)nc2N)cc1`, the AC50 under setting [1] was 35.5 µM [falling, single point] and the AC50 under setting [2] is 10 µM [falling, partial curve, poor fit].
As to `CC(=O)c1cc(-c2ccc(F)cc2)n(CC(=O)NC2CCC(C)CC2)c1C` (stereo not drawn), the AC50 under setting [2] is 35.5 µM [falling, partial curve].
